Assay type in all cases: cell-based
For one experiment, the system named is A549. As to the kind of experiment: Cytotoxicity / anti-proliferation assay (CCK-8), A549. Conditions: Homo sapiens, 72 h, CCK-8 kit. The method, then:
(§1) A549, MDA-MB-231, HCT-8, MCF-7, and HEK293 cells were seeded at 8000-10000 cells (100 μl) in white 96-well plates and pre-incubate the plate for 24 h under standard cell culture conditions, respectively. Then the cells were exposed to the different inhibitors with various concentrations for 72 h. Finally, 10 μl of CCK-8 kit solution was added to each well and incubated for 3-4 hours under standard cell culture conditions, and the 96 well plates were measured the absorbance at 450 nm using Perkin-Elmer Wallac Victor ^3V 1420 multi label plate reader (Perkin-Elmer, Wellesley, USA). EC50s were calculated using GraphPad Prizm statistical package with sigmoidal variable slope dose response curve fit.
(§2) Cell anti-proliferation assays were performed to determine the toxicity of these inhibitors. Several cell lines (MDA-MB-231, MCF-7, A549 and HCT-8) were incubated and then treated with varying concentrations of the inhibitors for 72 h, respectively. […] These compounds were further evaluated against the control cell line HEK293 to test their toxicity with a non-cancerous cell line.
(Formazan colour is commonly taken as a measure of viable cells.)

The test system of the next experiment is HCT-8. The experiment can be described thus: Cytotoxicity / anti-proliferation assay (CCK-8), HCT-8. As to conditions: Homo sapiens, 72 h, CCK-8 kit. The method, then:
as §1, §2

Another experiment concerns MCF-7. The experiment can be described thus: Cytotoxicity / anti-proliferation assay (CCK-8), MCF-7. Conditions: Homo sapiens, MCF7; 72 h, CCK-8 kit. How it is done: as §1, §2

Turning to `O=C(CCCCCCC(=O)Nc1ccccc1)NO` [SAHA, N-hydroxy-N′-phenyl-octanediamide, reference compound], the EC50 in the experiment on A549 is 19.3 ± 1.26 µM; in the experiment on HCT-8, less than 10 µM; in the experiment with MCF-7, 8.12 ± 4.98 µM.

In general, EC50 refers to the concentration that produces a half-maximal response.

For the origin of these results see patent US20190322643A1 (Georgia State University Research Foundation, Inc., priority 2016, published 2019).
